In all, about 360,000 compounds went through this assay and about 1,700 (0.47%) were called active. Inconclusive results, whose numbers are uncertain, are shown with a selection of clear calls. Calls come from the whole dose curve; as a rule, active = well fitted inhibition curve with a large enough effect; inconclusive = small, poorly fitted or top-dose-only effect; inactive = no such curve, though single readings can be large or run the other way. Potencies of inconclusive entries are doubtful fits and often do not repeat.
target: Bifunctional 3'-5' exonuclease/ATP-dependent helicase WRN (Homo sapiens) (UniProt Q14191); assay: qHTS for Inhibitors of WRN Helicase; conditions: WRN helicase unwinding, fluorescent forked duplex, kinetic; activity change, negative = inhibition: at 114 µM (top of the series) unless noted; note: nearly all actives have a fitted effect of over 55% in size
Outline: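 Kinetic red-fluorescence monitoring (525/598 nm) tracks WRN helicase activity after 100 nM fluorophore-quencher forked duplex and 2 mM ATP are added to 20 nM enzyme pretreated 15 min at room temperature with compound.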
% is set by controls: 0 for no effect and ±100 for the full control effect; potency is the fitted concentration of half-maximal effect.

Protein sequences, listed by entry. Tags and fused reporters are not part of them.
UniProt Q14191, whole entry, looked up: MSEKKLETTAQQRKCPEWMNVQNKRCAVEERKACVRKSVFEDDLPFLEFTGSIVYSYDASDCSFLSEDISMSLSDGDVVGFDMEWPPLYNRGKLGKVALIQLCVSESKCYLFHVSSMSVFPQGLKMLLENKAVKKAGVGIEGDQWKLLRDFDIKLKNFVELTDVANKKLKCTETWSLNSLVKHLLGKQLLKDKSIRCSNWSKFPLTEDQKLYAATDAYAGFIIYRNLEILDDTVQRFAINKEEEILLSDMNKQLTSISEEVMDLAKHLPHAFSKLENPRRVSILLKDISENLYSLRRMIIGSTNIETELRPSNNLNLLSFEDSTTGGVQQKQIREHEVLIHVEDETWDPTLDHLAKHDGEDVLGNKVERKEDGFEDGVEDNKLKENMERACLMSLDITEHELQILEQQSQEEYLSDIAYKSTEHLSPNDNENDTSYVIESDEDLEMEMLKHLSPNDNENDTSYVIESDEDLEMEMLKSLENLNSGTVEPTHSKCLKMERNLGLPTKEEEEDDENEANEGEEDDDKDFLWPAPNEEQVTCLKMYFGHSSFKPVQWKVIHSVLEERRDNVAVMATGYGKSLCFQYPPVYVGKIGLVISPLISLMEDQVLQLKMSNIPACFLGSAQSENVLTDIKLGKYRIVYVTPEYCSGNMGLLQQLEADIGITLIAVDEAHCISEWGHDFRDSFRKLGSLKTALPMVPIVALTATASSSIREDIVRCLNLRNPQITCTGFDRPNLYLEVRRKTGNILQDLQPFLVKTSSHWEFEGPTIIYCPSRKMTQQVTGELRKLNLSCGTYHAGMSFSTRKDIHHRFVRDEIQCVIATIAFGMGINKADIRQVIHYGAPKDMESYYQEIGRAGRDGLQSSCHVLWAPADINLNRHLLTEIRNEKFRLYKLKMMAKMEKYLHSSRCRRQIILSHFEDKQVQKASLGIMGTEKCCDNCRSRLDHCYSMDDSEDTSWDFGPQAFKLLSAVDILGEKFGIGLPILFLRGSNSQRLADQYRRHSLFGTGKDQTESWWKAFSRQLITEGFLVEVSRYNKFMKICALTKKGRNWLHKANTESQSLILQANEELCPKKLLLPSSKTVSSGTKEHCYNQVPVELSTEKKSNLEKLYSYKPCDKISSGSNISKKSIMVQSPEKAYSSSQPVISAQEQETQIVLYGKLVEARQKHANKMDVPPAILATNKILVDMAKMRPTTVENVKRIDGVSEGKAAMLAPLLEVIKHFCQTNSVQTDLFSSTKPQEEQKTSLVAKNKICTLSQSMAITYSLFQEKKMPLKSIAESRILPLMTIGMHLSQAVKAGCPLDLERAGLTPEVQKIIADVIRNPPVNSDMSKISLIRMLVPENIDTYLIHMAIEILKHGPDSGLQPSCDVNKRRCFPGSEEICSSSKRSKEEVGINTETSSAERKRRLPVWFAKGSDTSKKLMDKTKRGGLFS

Row | SMILES | activity change, negative = inhibition | Potency
1 | O=C(/C=C/c1ccco1)Nc1cccc(NC(=O)/C=C/c2ccco2)n1 | inactive: -15.7% [at 11.6 µM] | –
2 | CCOC(=O)C1=C(c2ccccc2)N=c2s/c(=C\c3ccc(O)cc3)c(=O)n2C1c1cccs1 (stereo not drawn) | – | inconclusive: 44.7 µM [inhibitor, partial curve]
3 | Cc1nc2ccccc2n1CC(=O)c1ccc(O)c(O)c1 | – | inconclusive: 11.2 µM [inhibitor, full curve]
4 | Cc1ccc(-c2cc(C(=O)OCC(=O)N(C)c3c(N)n(Cc4ccccc4)c(=O)[nH]c3=O)c3ccccc3n2)o1 | – | inconclusive: 35.5 µM [inhibitor, full curve, poor fit]
5 | O=C(COC(=O)c1ccc2c(c1Cl)C(=O)c1ccccc1C2=O)NC1CCCCC1 | – | inactive
6 | CSc1ccccc1NC(=O)c1cc2c(=O)n3ccccc3nc2s1 | – | inconclusive: 31.6 µM [inhibitor, full curve]
7 | COc1ccc2c(c1OC)C(=O)OC2Nc1nc(-c2ccccc2)cs1 (stereo not drawn) | – | inconclusive: 56.2 µM [inhibitor, partial curve]
8 | O=C(O)c1cc(-c2ccco2)nn1-c1cccc(Cl)c1 | – | inconclusive: 56.2 µM [inhibitor, partial curve]
9 | Cc1[nH]n(-c2ncc(-c3ccc(Cl)cc3)s2)c(=O)c1C(c1ccc(Cl)cc1)C(C#N)C#N (stereo not drawn) | – | inconclusive: 50.1 µM [inhibitor, partial curve]
10 | CSc1cccc(CNC(=O)C2CCC(=O)N(CC3CCCCC3)C2)c1 (stereo not drawn) | – | inconclusive: 39.8 µM [inhibitor, full curve, poor fit]
11 | CC1CCCN(S(=O)(=O)c2cccc(C(=O)OCC(=O)N(C)Cc3c(F)cccc3Cl)c2)C1 (stereo not drawn) | – | inactive
12 | Cc1ccc(NC(=O)C(=Cc2ccc(C(=O)O)cc2)C(=O)Nc2ccc(C)cc2C)c(C)c1 | – | inconclusive: 31.6 µM [inhibitor, partial curve]
13 | COc1cc(OC)c(C2CC(=O)N3CN(c4ccc(C)cc4)CSC3=C2C#N)cc1OC (stereo not drawn) | – | inconclusive: 56.2 µM [inhibitor, partial curve]
14 | Oc1c(Br)cc(Br)cc1C=NCc1ccccc1 | – | inconclusive: 31.6 µM [inhibitor, single point]
15 | c1ccc2c(CN3CCOCC3)c3ccccc3c(CN3CCOCC3)c2c1 | – | inactive
16 | O=C(CSc1cccc2cccnc12)Nc1ccc(S(=O)(=O)N2CCOCC2)cc1 | – | inactive
17 | N#CC1=C(N)SC(N)=C(C#N)C1c1cccc(O)c1 | – | inconclusive: 28.2 µM [inhibitor, partial curve]
18 | CCCCC1(C(=O)OCC)NC(c2ccc(O)cc2)C2C(=O)N(c3ccccc3)C(=O)C21 (stereo not drawn) | – | inconclusive: 89.1 µM [inhibitor, single point]
19 | Cc1cc(C)nc(S/C=C/C(=O)c2ccccc2F)n1 | – | inconclusive: 3.16 µM [inhibitor, full curve, poor fit]
20 | CC(=O)Nc1cc(=O)c2cccnc2[nH]1 | inconclusive: -44.9% [inhibitor] | –
21 | CCOC(=O)c1ccc(NC(=O)CSc2nc(C)cc(=O)[nH]2)cc1 | – | inconclusive: 50.1 µM [inhibitor, partial curve]
22 | O=C(COC(=O)C1CCCCC1)Nc1ccc([N+](=O)[O-])cc1 | – | inconclusive: 89.1 µM [inhibitor, single point]

Row | SMILES | activity change, negative = inhibition | Potency
23 | O=C(Nc1cc(Cl)cc(Cl)c1)c1coc(=O)c(Br)c1 | – | inconclusive: 79.4 µM [inhibitor, partial curve]
24 | COc1ccc(S(=O)(=O)N2CN(Cc3ccco3)c3nc4ccccc4nc32)cc1 | – | active: 56.2 µM
25 | Cc1ccc(NC(=O)CCC(=O)c2ccc(Cl)s2)nc1 | – | inactive
26 | O=C(Nc1ccc(F)cc1)Nc1ccccc1F | – | inactive
27 | Nc1cc(S(=O)(=O)O)cc([N+](=O)[O-])c1O | – | inconclusive: 6.7 µM [inhibitor, partial curve]
28 | N#Cc1ccsc1NC(=O)CSc1nnnn1-c1ccc(O)cc1 | – | inconclusive: 50.1 µM [inhibitor, partial curve]
29 | O=C(CSc1nnc(NC(=O)C2CC(=O)N(c3ccc(F)cc3)C2)s1)NCc1ccco1 (stereo not drawn) | – | inconclusive: 28.2 µM [inhibitor, single point]
30 | C=CCn1c(SCC(=O)c2ccc(O)c(O)c2)nnc1-c1cccc(C)c1 | – | active: 20 µM
31 | O=C(NC(=O)c1ccccc1)Nc1ccc(-c2cnco2)cc1 | – | inconclusive: 39.8 µM [inhibitor, single point]
32 | O=c1[nH]c(/C=C/c2cccc([N+](=O)[O-])c2)c([N+](=O)[O-])c(=O)[nH]1 | inactive: -4.94% [at 11.6 µM] | –
33 | CCOC(=O)CSC1=NC(=O)/C(=C\c2ccc(Cl)cc2)S1 | – | inconclusive: 50.1 µM [inhibitor, partial curve]
34 | Cc1ccc(C)c(OCc2cc(C(=O)N3CCc4sccc4C3)no2)c1 | – | inconclusive: 39.8 µM [inhibitor, full curve, poor fit]
35 | O=[N+]([O-])c1cc(/C=N\Nc2nc(-c3ccccc3)cs2)ccc1O | – | inconclusive: 50.1 µM [inhibitor, partial curve]
36 | CC(=O)Nc1nc(-c2cccc3ccccc23)cs1 | – | inconclusive: 89.1 µM [inhibitor, single point]
37 | CS(=O)(=O)c1ccc2c(c1)SC1=NC(=O)/C(=C/c3ccco3)C(=N)N12 | – | inconclusive: 56.2 µM [inhibitor, partial curve]
38 | Nc1cc(=O)[nH]c(SCC(=O)Nc2cc(S(=O)(=O)N3CCOCC3)ccc2Cl)n1 | – | inactive
39 | Cn1cc(C(=O)C(=O)N2CCOCC2)c2ccccc21 | – | inactive
40 | Cc1[nH]n(-c2ccccc2)c(=S)c1C=Nc1ccc([N+](=O)[O-])cc1 | – | inconclusive: 25.1 µM [inhibitor, single point]
41 | COCCn1cnc2c1c(=O)n(Cc1ccc(C#N)cc1)c(=O)n2Cc1ccccc1 | – | inactive
42 | CCOC(=O)C(NC(=O)c1cccc(Cl)c1)(Nc1sc2c(c1C(N)=O)CCC2)C(F)(F)F (stereo not drawn) | – | inactive
43 | O=C(CSc1nc2cc(Cl)ccc2c(=O)n1Cc1ccco1)Nc1ccc(S(=O)(=O)N2CCOCC2)cc1 | – | inconclusive: 50.1 µM [inhibitor, partial curve]

Full records, looked up by structure. Values in the order: activity change, negative = inhibition | Potency
`O=c1[nH]c(/C=C/c2cccc([N+](=O)[O-])c2)c([N+](=O)[O-])c(=O)[nH]1` is listed with inactive: -4.94% [at 11.6 µM] | –
`CCOC(=O)CSC1=NC(=O)/C(=C\c2ccc(Cl)cc2)S1` is listed with – | inconclusive: 50.1 µM [inhibitor, partial curve]
`O=C(/C=C/c1ccco1)Nc1cccc(NC(=O)/C=C/c2ccco2)n1` is listed with inactive: -15.7% [at 11.6 µM] | –
